In PubChem BioAssay AID493014 (National Center for Advancing Translational Sciences (NCATS), 2011) one finds AC50 data, which are given here for 40 compounds.

Each structure is given as a SMILES string. The list shows a part of the results. Further columns of the screen follow, without active or inactive calls. Compounds called inactive in the main read-out are mostly missing here. Words in brackets tell the shape of the fitted curve; partial curves, single points and poor fits give uncertain potencies.

A short description of this test: qHTS Assay to Find Inhibitors of Chronic Active B-Cell Receptor Signaling. Particulars: ABC-DLBCL IkBa-CBG/CBR reporter, luminescence ratio (green luciferase fused to IkBa over red control in TMD8 lymphoma cells), 4 h. A digest of the protocol: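 Cell line TMD8 (human ABC DLBCL), stably expressing tet-inducible CBG68-IkBa fusion and CBR; IMDM/0.5% FBS; cpd up to 46 uM; dox induction, 4 h, 37C/5% CO2; dual luminescence; green/red ratio; MG132 control.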

[1] abbreviates: measured here: CBR red luminescence, cell number.
Setting [2] is: measured here: IkBa-CBG green luminescence.

As for `C=CCN1CCN(C(c2ccccc2)c2nnnn2CCC(C)C)CC1` (configuration not stated), the AC50 (commonly the midpoint of the concentration-response curve, whichever way the signal moves) under setting [1] was 1.58 µM [falling, partial curve, poor fit].

For `CC1CCCN(CCOCCOc2ccccc2-c2ccccc2)C1` (configuration not stated), under setting [1], the concentration at half-maximal activity (AC50) was 29.1 µM [falling, single point].

As for `COc1cc(/C=C2\SC(=S)N(NS(=O)(=O)c3ccccc3)C2=O)cc(OC)c1OC`, the concentration at half-maximal activity (AC50) under setting [1] was 12.6 µM [falling, single point].

Turning to `O=C(CSCc1cccc(Cl)c1)N1CCN(Cc2ccc3c(c2)OCO3)CC1`, under setting [1], the half-maximal activity concentration (AC50) is 23.1 µM [falling, single point].

`CCOCC(=O)Nc1nc2ccc(OC)cc2s1`: the half-maximal activity concentration (AC50) under setting [1] was 3.66 µM [falling, full curve, poor fit].

As to `O=Cc1cc2ccccc2nc1SCCCF`, the AC50 under setting [1] is 15.8 µM [rising, partial curve] and the AC50 under setting [2] is 22.4 µM [falling, single point].

For the compound `O=[N+]([O-])c1cccc(S(=O)(=O)[N-]c2nc3ccccc3nc2-n2cc[n+](Cc3ccccc3)c2)c1`, the AC50 under setting [1] was 3.98 µM [falling, single point].

`CCOC(=O)N1C/C(=C\c2ccccc2)C(=O)/C(=C/c2ccccc2)C1`: under setting [1], the AC50 was 0.224 µM [falling, full curve, poor fit].

With `COc1ccccc1CCC(=O)NNC(=O)c1cccs1`, the concentration at half-maximal activity (AC50) under setting [1] is 9.2 µM [falling, partial curve, poor fit].

On to `O=C1CSC(=S)N1/N=C/c1cc(Br)c(O)c(Br)c1`, for which, under setting [1], the concentration at half-maximal activity (AC50) is 14.1 µM [rising, partial curve, poor fit].

Consider `Cc1ccc(NC2=C(Cl)C(=O)OC2OC(=O)c2ccccc2)c(C)c1` (configuration not stated), for which the half-maximal activity concentration (AC50) under setting [1] is 11.2 µM [falling, single point].

On to `CC(=O)Nc1nc(C=C(Cl)Cl)cs1`, for which the half-maximal activity concentration (AC50) under setting [1] is 0.82 µM [rising, full curve, poor fit].

For the compound `Cn1nc(C(=O)Nc2ccc3c(c2)OCCO3)c2ccccc2c1=O`, the AC50 under setting [1] was 1.64 µM [rising, partial curve, poor fit].

For `O=C(NCc1ccc2c(c1)OCO2)c1ccc2c(c1)N(Cc1ccccc1F)C(=O)c1ccccc1S2`, under setting [1], the half-maximal activity concentration (AC50) was 35.5 µM [rising, partial curve, poor fit].

On to `Cc1cc(C(=O)NN=Cc2ccc(OC(=O)c3ccco3)cc2)c(C)o1`, for which, under setting [1], the half-maximal activity concentration (AC50) is 9.2 µM [falling, partial curve].

On to `CCCn1cnc2cc(NC(=O)c3ccco3)ccc21`, for which, under setting [1], the concentration at half-maximal activity (AC50) was 3.16 µM [falling, single point].

For the compound `CCC(=O)C1=C(c2ccc(F)cc2)N(C(=O)CC)n2cnnc2S1`, the AC50 under setting [1] is 35.5 µM [rising, single point] and the half-maximal activity concentration (AC50) under setting [2] is 35.5 µM [falling, single point].

In the case of `CCOC(=O)CSc1ccc2ccccc2n1`, the AC50 under setting [1] is 2.24 µM [rising, partial curve, poor fit].

On to `CC1CCC(NC(=O)c2cccc(S(=O)(=O)N3CCN(C)CC3)c2)CC1` (configuration not stated), for which, under setting [1], the AC50 is 0.164 µM [rising, full curve, poor fit].

With `CC(C)(C)c1nnc2sc(SCC(=O)N3CCCc4ccccc43)nn2c1=O`, under setting [1], the AC50 was 7.08 µM [falling, partial curve].

In the case of `CC(C)Nc1nc2ccccc2c(=O)[nH]1`, the AC50 under setting [1] is 22.4 µM [falling, single point].

As for `O=C(NCC(O)c1ccccc1)c1ccccc1` (configuration not stated), under setting [1], the AC50 is 7.08 µM [falling, partial curve].

Regarding `CCn1c(-c2nonc2NC(=O)c2ccccc2)nc2ccccc21`, the AC50 under setting [1] is 0.0891 µM [falling, full curve, poor fit].

Regarding `COc1ccc(OCc2nnc3n2N=C(c2ccccc2)C(CC(=O)O)S3)cc1` (configuration not stated), under setting [1], the half-maximal activity concentration (AC50) is 6.31 µM [rising, single point].

As to `Cc1ccc2c(c1)N(C(=O)CCC(=O)NCCCN1CCC(Cc3ccccc3)CC1)CCO2`, under setting [1], the concentration at half-maximal activity (AC50) is 8.91 µM [falling, partial curve].

`COc1ccc(C(C(=O)NCc2ccccc2)N(C(=O)c2snc(C(N)=O)c2N)c2ccccc2OC)cc1OC` (configuration not stated): the concentration at half-maximal activity (AC50) under setting [1] was 35.5 µM [falling, single point].

Regarding `COc1ccc2cc1Oc1ccc(cc1)C[C@H]1c3cc(c(OC)cc3CCN1C)Oc1c(OC)c(OC)cc3c1[C@H](C2)N(C)CC3`, under setting [1], the AC50 is 20 µM [falling, single point].

For the compound `C/C(N)=C(/C#N)C(=O)CSc1nnnn1-c1ccccc1`, the AC50 under setting [1] is 6.31 µM [rising, single point].

Consider `COc1ccc(/C=C2\SC(=S)N(c3cccnc3)C2=O)cc1`, for which the AC50 under setting [1] is 1.78 µM [rising, full curve, poor fit].

Turning to `NC(=O)c1nsc(C(=O)N(c2cccc(F)c2)C(C(=O)NCC2CCCO2)c2c[nH]c3ccccc23)c1N` (configuration not stated), under setting [1], the AC50 was 2.82 µM [rising, partial curve].

On to `CCOC(=O)C1(Cc2ccccc2)CCN(Cc2ccc(COC)o2)CC1`, for which the AC50 under setting [1] is 0.708 µM [falling, full curve].

On to `Cc1ccc(CN2CC(C(=O)Nc3cc(C)ccn3)CC2=O)cc1` (configuration not stated), for which the AC50 under setting [1] is 0.206 µM [falling, full curve, poor fit].

Take `Cc1cc(=O)[nH]c(Nc2ccccc2C)n1`: under setting [1], the concentration at half-maximal activity (AC50) was 39.8 µM [rising, partial curve, poor fit].

For the compound `CC(C)OC(=O)NC(C)(C)COC(=O)Nc1cccc(Cl)c1`, under setting [1], the concentration at half-maximal activity (AC50) is 4.11 µM [rising, full curve, poor fit].

Turning to `CSc1sc(-c2nnc(SCC(=O)Nc3ccccc3)n2C)c2c1C=CCC2`, the AC50 under setting [1] was 3.98 µM [rising, full curve, poor fit].

Consider `COc1ccc(C(=O)N/N=C/c2ccccn2)cc1OC`, for which the AC50 under setting [1] was 35.5 µM [falling, single point].

As to `Cc1c(CC(=O)NCCCCCC(=O)O)c(=O)oc2cc3occ(-c4ccccc4)c3cc12`, under setting [1], the AC50 is 10 µM [rising, partial curve].

On to `CCCc1nn(-c2cc(Cl)ccc2OC)c2c1C(=O)CC(C)(C)C2`, for which the AC50 under setting [1] is 29.1 µM [falling, single point].

For the compound `Cc1ccc(CN(c2ccc(C(=O)N3CCc4ccccc4C3)cc2)S(C)(=O)=O)cc1`, the half-maximal activity concentration (AC50) under setting [1] is 13 µM [falling, partial curve, poor fit].

Turning to `Cc1onc(-c2ccccc2Cl)c1C(=O)OCC(=O)c1ccc[nH]1`, the concentration at half-maximal activity (AC50) under setting [1] was 10.3 µM [rising, partial curve, poor fit].
